Laboratory results: PubChem BioAssay AID1159578 (Peter MacCallum Cancer Centre, 2015)
Purpose: 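Genome-wide hunt for genes controlling movement of lymphatic endothelial cells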 (primary screen). Cells: human lymphatic endothelial cells. Reagents: siRNA pool against human genes, 40 nM. Time to read-out: 48 h after transfection. Read-out: 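Cells stained with dye and imaged after a scratch; covered wound area and nuclei counted, duplicates averaged, migration set against mock wells and turned into a robust z-score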. Direction: migration robust z-score: higher = faster migration into the scratch; migration relative to mock: higher = more scratch area covered than mock; nuclei per well: higher = more cells in the well. Active means: 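Migration changed when robust z exceeds 2 or falls below -2 and mean nuclei number is at least 3300; otherwise not called changed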. Meaning of the calls: active = migration changed; inactive = no migration change, or too few cells.
The deposit covers about 18,000 reagents; this is a random part of them. In the full data, about 1,030 (5.7%) were called active. 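Inactive calls also include pools with fewer than 3300 nuclei, whose migration was not assessed.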 The raw values are shown without normalisation. A number with no mark means an inactive call. Reagent sequences are not shown.

target	migration robust z-score	migration class with cell-count check	migration relative to mock	nuclei per well, duplicate mean
TRMT11 (tRNA methyltransferase 11)	0.96	migration z between -2 and 2; enough cells	1.13	5814
LARP4 (La ribonucleoprotein 4)	-0.46	migration z between -2 and 2; enough cells	0.76	6501
SMAD1 (SMAD family member 1)	1.15	migration z between -2 and 2; enough cells	1.02	5010
GLS (glutaminase)	-1.89	migration z between -2 and 2; enough cells	0.44	3532
BTBD3 (BTB domain containing 3)	0.58	migration z between -2 and 2; enough cells	1.04	5695
GALE (UDP-galactose-4-epimerase)	1.29	migration z between -2 and 2; enough cells	1.05	4290
VCAN (versican)	-1.23	migration z between -2 and 2; enough cells	0.56	5740
ERBB3 (erb-b2 receptor tyrosine kinase 3)	-4.54	under 3300 nuclei; migration not judged	-0.07	2918
CCDC106 (coiled-coil domain containing 106)	-0.04	migration z between -2 and 2; enough cells	0.88	6450
BPY2 (basic charge Y-linked 2)	0.67	migration z between -2 and 2; enough cells	1.06	6260
FAM222A (family with sequence similarity 222 member A)	-2.32 (active)	migration z below -2; enough cells	0.28	3684
WAPL (WAPL cohesin release factor)	-0.67	migration z between -2 and 2; enough cells	0.71	5770
PLXDC2 (plexin domain containing 2)	-3.85 (active)	migration z below -2; enough cells	-0.11	4940
OR4C15 (olfactory receptor family 4 subfamily C member 15)	-1.64	migration z between -2 and 2; enough cells	0.46	4911
FCRL6 (Fc receptor like 6)	0.25	migration z between -2 and 2; enough cells	0.94	5459
DELEC1 (deleted in esophageal cancer 1)	-0.02	migration z between -2 and 2; enough cells	0.88	6012
STRADB (STE20 related adaptor beta)	-1.79	migration z between -2 and 2; enough cells	0.46	4210
ZNF79 (zinc finger protein 79)	0.37	migration z between -2 and 2; enough cells	0.98	4944
ITM2A (integral membrane protein 2A)	-1.6	migration z between -2 and 2; enough cells	0.47	4973
CSNK1D (casein kinase 1 delta)	0.31	migration z between -2 and 2; enough cells	0.86	4286
GRM4 (glutamate metabotropic receptor 4)	0.65	migration z between -2 and 2; enough cells	0.93	5244
ORAI1 (ORAI calcium release-activated calcium modulator 1)	-1.24	migration z between -2 and 2; enough cells	0.56	5552
PCDHA13 (protocadherin alpha 13)	0.06	migration z between -2 and 2; enough cells	0.9	5984
